# Experimental data reported in PMC9368268.
# Amino acid sequences for entries named in this document (tags omitted). Residues count along the entry.
# UniProt P35363: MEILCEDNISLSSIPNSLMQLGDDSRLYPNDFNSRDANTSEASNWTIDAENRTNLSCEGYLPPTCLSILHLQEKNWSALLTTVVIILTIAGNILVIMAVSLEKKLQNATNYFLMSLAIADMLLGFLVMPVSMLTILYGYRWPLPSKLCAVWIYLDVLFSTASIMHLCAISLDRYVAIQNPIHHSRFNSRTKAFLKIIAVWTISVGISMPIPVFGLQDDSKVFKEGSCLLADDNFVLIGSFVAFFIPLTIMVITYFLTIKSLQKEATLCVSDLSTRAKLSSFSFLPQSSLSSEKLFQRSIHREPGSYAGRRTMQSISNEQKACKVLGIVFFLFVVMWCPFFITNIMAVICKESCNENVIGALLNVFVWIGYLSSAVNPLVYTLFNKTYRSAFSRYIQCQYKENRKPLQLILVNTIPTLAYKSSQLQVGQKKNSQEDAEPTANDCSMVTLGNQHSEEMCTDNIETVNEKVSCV
# UniProt P15209, residues 32-821: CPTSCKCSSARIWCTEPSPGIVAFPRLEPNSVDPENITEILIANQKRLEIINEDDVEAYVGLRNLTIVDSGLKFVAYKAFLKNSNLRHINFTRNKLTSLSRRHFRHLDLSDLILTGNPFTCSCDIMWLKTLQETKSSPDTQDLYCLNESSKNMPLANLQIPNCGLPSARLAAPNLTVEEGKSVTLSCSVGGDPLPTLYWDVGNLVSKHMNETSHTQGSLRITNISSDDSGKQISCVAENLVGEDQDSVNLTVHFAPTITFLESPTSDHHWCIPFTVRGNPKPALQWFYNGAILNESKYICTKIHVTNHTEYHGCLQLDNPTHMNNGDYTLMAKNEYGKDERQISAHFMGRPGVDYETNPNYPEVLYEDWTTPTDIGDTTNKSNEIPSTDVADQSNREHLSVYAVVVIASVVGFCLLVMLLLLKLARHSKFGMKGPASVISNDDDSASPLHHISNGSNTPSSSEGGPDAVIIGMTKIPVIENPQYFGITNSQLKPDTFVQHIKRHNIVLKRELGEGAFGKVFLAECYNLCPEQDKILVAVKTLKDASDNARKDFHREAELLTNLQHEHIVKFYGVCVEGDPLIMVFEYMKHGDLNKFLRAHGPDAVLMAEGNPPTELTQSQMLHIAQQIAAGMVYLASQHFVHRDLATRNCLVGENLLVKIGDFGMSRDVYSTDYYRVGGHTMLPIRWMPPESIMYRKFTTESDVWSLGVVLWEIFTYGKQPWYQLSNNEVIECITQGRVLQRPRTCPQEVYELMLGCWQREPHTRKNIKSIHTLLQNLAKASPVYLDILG
# These are yes or no findings as the source states them, for the method shown. In cells and extracts the contact can be indirect. Some results given as binding are weak or reduced against the parent protein; the word gives no strength.
# What was measured:
# [1] = molecular target: Endogenous 5-HT2A receptor (mouse brain) (mouse (endogenous in C57BL/6J brain)) (UniProt P35363); assay: proximity ligation; in situ PLA (Duolink) on 20 um mouse brain sections (frontal cortex, hippocampus, striatum) with anti-5-HT2A and anti-TrkB antibodies; negative control without primary antibodies
# [2] = molecular target: Endogenous 5-HT2A receptor (mouse brain) (mouse (endogenous in C57BL/6J brain)) (UniProt P35363); assay: co-IP; membrane-fraction lysates of frontal cortex, hippocampus and striatum of adult C57BL/6J mice; IP with goat anti-5-HT2A and Protein A-Sepharose; blot with anti-TrkB
# [3] = molecular target: HA-tagged 5-HT2A receptor (mouse) (UniProt P35363); assay: co-IP; lysates of N1E-115 cells co-expressing HA-5-HT2A and GFP-TrkB; IP with anti-GFP by the methods and the legend (anti-HA by the results text); blot with anti-GFP and anti-HA
# [4] = molecular target: HA-tagged 5-HT2A receptor (mouse) (UniProt P35363); assay: condition: only cells expressing only one receptor type mixed prior to lysis; co-IP; control: N1E-115 cells expressing only one receptor type (HA-5-HT2A or GFP-TrkB) mixed prior to lysis, analysed in parallel
Substance,binding [1],binding [2],binding [3],binding [4]
Endogenous TrkB receptor (mouse brain) (from UniProt P15209 32-821),binds,binds,–,–
GFP (mEGFP)-tagged TrkB (from UniProt P15209 32-821) (receptor),–,–,binds,no binding
